# Data reported in PubChem BioAssay AID540276 (National Center for Advancing Translational Sciences (NCATS), 2011).
# Hit rate of the full screen: of about 300,000 compounds, about 5,400 (1.8%) were called active. The shares of active, inactive and inconclusive entries below differ from those in the screen. The call rests on the fitted dose curve; tested in HEK293 cells. A potency beside an inconclusive call is a rough fit, not a confirmed value.
# Test: qHTS for inhibitors of binding or entry into cells for Marburg Virus
# Details: Marburg virus pseudotyped entry inhibition, cell reporter; activity change, negative = inhibition: at 37.8 µM (top of the series) unless noted
# On the % scale 0 is the no-effect control and ±100 the full control effect; potency means the concentration at half of the fitted maximal effect.
SMILES,Potency,"activity change, negative = inhibition"
Cn1nc(-c2ccccc2)cc1NC(=O)c1ccccc1,inactive,–
O=C(Nc1ccc(Br)cc1F)c1ccncc1,inactive,–
CC1=CC(C)(C)N(C(=O)CSc2nnc(-c3ccccc3)o2)c2ccc(C)cc21,"inconclusive: 20.6 µM [inhibitor, single point]",–
Cc1cccc(N2CCN(Cc3cnc(Cl)s3)CC2C)c1 (configuration not stated),"inconclusive: 7.94 µM [inhibitor, partial curve, poor fit]",–
Nc1cnn([C@@H]2O[C@H](CO)[C@@H](O)[C@H]2O)c(=O)n1,"inconclusive: 1 µM [inhibitor, full curve, poor fit]",–
S=c1cnc2ccccc2[nH]1,inactive,–
COc1ccccc1CN1COc2ccc3c(oc(=O)c4ccccc43)c2C1,"inconclusive: 35.5 µM [inhibitor, single point]",–
Cc1ncsc1CCOC(=O)c1ccc(Cl)cc1,"inconclusive: 17.8 µM [activator, single point]",–
Fc1ccc(-c2cc3nc4c(c(N5CCOCC5)n3n2)CCCC4)cc1,"inconclusive: 29.1 µM [inhibitor, single point]",–
Cc1ccc(C(=O)NCC(=O)OCC(=O)c2ccc3c(c2)NC(=O)CO3)cc1,"inconclusive: 35.5 µM [activator, single point]",–
CCN(CC(=O)Nc1ccccc1OC)C(=O)c1ccc(NS(=O)(=O)c2ccc(C(C)=O)cc2)cc1,inactive,–
COc1ccc(S(N)(=O)=O)cc1C(=O)NCC1(N2CCCCC2)CCCCC1,"inconclusive: 6.31 µM [activator, single point]",–
CC(C)=CC(=O)Nc1ccc(Br)cc1,inactive,–
CCn1cc(C(=O)NCc2ccccc2OC)c(=O)c2cc(S(=O)(=O)N3CCCCC3)ccc21,"inconclusive: 22.4 µM [inhibitor, single point]",–
CCC(C)c1ccc(-c2cc(C(=O)OCC(=O)Nc3cc(C)on3)c3ccccc3n2)cc1 (configuration not stated),"inconclusive: 3.98 µM [inhibitor, full curve, poor fit]",–
Cc1cc(C)n2c(nc3ccccc32)c1C(=O)NCc1ccccc1,inactive,–
Cc1nc2ccccc2n1CC(=O)NCc1ccccc1,"inconclusive: 1.64 µM [inhibitor, partial curve, poor fit]",–
C#CCOc1ccc(-c2nnc(Nc3cccc(C)c3)c3ccccc23)cc1,"inconclusive: 10 µM [inhibitor, single point]",–
N/C(=N\OC(=O)CCC1CCCC1)c1ccncc1,inactive,–
Cc1cccc(Cn2c(=O)n(CCc3ccccc3)c(=O)c3c(C)c(C)sc32)c1,inactive,–
CCOC(=O)C1=NO[C@@]2(C=C(Br)C(=O)[C@H]3O[C@H]32)C1,"inconclusive: 1.5 µM [inhibitor, partial curve, poor fit]",–
COc1ccc(S(=O)(=O)N2CCOC23CCN(S(=O)(=O)c2cccs2)CC3)cc1,"inconclusive: 7.08 µM [activator, partial curve]",–
O=C(NCCCc1ccccc1)C1CCN(S(=O)(=O)c2ccc(F)cc2)CC1,"inconclusive: 14.1 µM [inhibitor, single point]",–

# Given with bars between the fields: five of the compounds above.
SMILES | Potency | activity change, negative = inhibition
CCn1cc(C(=O)NCc2ccccc2OC)c(=O)c2cc(S(=O)(=O)N3CCCCC3)ccc21 | inconclusive: 22.4 µM [inhibitor, single point] | –
CCC(C)c1ccc(-c2cc(C(=O)OCC(=O)Nc3cc(C)on3)c3ccccc3n2)cc1 (configuration not stated) | inconclusive: 3.98 µM [inhibitor, full curve, poor fit] | –
Cc1cc(C)n2c(nc3ccccc32)c1C(=O)NCc1ccccc1 | inactive | –
Cc1nc2ccccc2n1CC(=O)NCc1ccccc1 | inconclusive: 1.64 µM [inhibitor, partial curve, poor fit] | –
C#CCOc1ccc(-c2nnc(Nc3cccc(C)c3)c3ccccc23)cc1 | inconclusive: 10 µM [inhibitor, single point] | –

# Continuation:

SMILES,Potency,"activity change, negative = inhibition"
COc1ccc(NC(=O)NCCc2ccc(Cl)cc2)cc1OC,inactive,–
Cc1cc(C)c2cc(C(O)c3nnnn3Cc3ccccc3)c(=O)[nH]c2c1 (configuration not stated),inactive,–
O=S(=O)(c1ccccc1)N1CCN(Cc2ccccc2)c2ccccc21,"inconclusive: 1.26 µM [activator, single point]",–
COc1cnc(-c2ccccn2)nc1N(C)C,"inconclusive: 6.31 µM [inhibitor, full curve, poor fit]",–
Cn1c(N)c(C(=O)COC(=O)/C=C/c2ccc(Cl)c(Cl)c2)c(=O)n(C)c1=O,inactive,–
Cc1n[nH]c(C)c1Sc1ccccc1N,inactive,–
CSc1nn(Cc2ccc(Cl)cc2)c(N(C(C)=O)C(C)=O)c1S(=O)(=O)c1ccccc1,"inconclusive: 7.94 µM [inhibitor, partial curve, poor fit]",–
O=C1C2C3C=CC([C@@H]2C(=O)N1C1CC1)[C@H]1C(=O)N(C2CC2)C(=O)C31 (some centres not stated),"inconclusive: 17.8 µM [activator, partial curve, poor fit]",–
Cc1[nH]n(-c2ccccc2)c(=O)c1/C=N/N(c1ccccc1)c1ccccc1,"inconclusive: 3.16 µM [activator, single point]",–
O=C(c1ccc(-c2ccccc2)cc1)C1CCCN(Cc2ccncc2)C1 (configuration not stated),"inconclusive: 15.8 µM [inhibitor, single point]",–
Cc1cc(C(=O)CSc2nnnn2-c2ccc(O)cc2)c(C)n1C,inactive,–
CCOc1ccc(S(=O)(=O)Nc2ccc(C(=O)NCC3(N4CCCCC4)CCCCC3)cc2)cc1,"inconclusive: 20 µM [inhibitor, partial curve, poor fit]",–
COc1ccc(-c2csc(Nc3ccc(S(N)(=O)=O)cc3)n2)cc1OC,"inconclusive: 18.3 µM [inhibitor, partial curve, poor fit]",–
Cc1c(C(=O)NCCN2CCOCC2)oc2ccccc12,"inconclusive: 14.6 µM [activator, partial curve, poor fit]",–
COc1ccccc1C(=O)NCCCNC(=O)c1cccnc1,"inconclusive: 20 µM [activator, single point]",–
N#Cc1c(NC(=O)COC(=O)C2CC3C=CC2C3)oc(-c2ccccc2)c1-c1ccccc1 (configuration not stated),inactive,–
CC(C)c1ccc(N2C(=O)CC(Sc3nc4ccccc4o3)C2=O)cc1 (configuration not stated),"inconclusive: 23.1 µM [inhibitor, single point]",–
Nc1c2c(nc3sc4c(c13)CCCCC4)CCCC2,"inconclusive: 16.4 µM [inhibitor, single point]",–
COc1ccccc1N1CCN(C(=O)c2ccc3c(Cl)c4c(nc3c2)CCCC4)CC1,inactive,–
CN(C)C1C(=O)C(C(N)=O)C(=O)C2(O)C(=O)C3C(=O)c4c(O)cccc4C(C)(O)C3C(O)C12 (configuration not stated),"inconclusive: 11.2 µM [inhibitor, single point]",–
Cc1ccc(CNC(=O)CCCCCn2c(=O)c3sccc3n(CC(=O)N(C)c3ccccc3)c2=O)cc1,"inconclusive: 4.47 µM [inhibitor, partial curve, poor fit]",–
CN(Cc1cnc2nc(N)nc(N)c2n1)c1ccc(C(=O)N[C@H](CCC(=O)O)C(=O)O)cc1,active: 0.0398 µM,–
COC(=O)COc1cccc2c(=O)n(CC(=O)NCc3ccccc3)ccc12,"inconclusive: 1.12 µM [inhibitor, partial curve, poor fit]",–

SMILES,Potency,"activity change, negative = inhibition"
CC(SCc1ccccc1)C(=O)N/N=C/c1ccc(OCC(=O)NCc2ccco2)cc1 (configuration not stated),"inconclusive: 10 µM [inhibitor, partial curve, poor fit]",–
CNc1cnn(-c2ccc(C)cc2)c(=O)c1Cl,"inconclusive: 0.398 µM [activator, full curve, poor fit]",–
Cc1cccc(-c2noc(CN(C(=O)c3ccc4c(c3)OCO4)C(C)C)n2)c1,"inconclusive: 35.5 µM [inhibitor, partial curve, poor fit]",–
O=C1c2ccccc2C(=O)c2c1cccc2N1CCCC1,"inconclusive: 6.31 µM [activator, single point]",–
C[C@H](NC(=O)C(c1ccccc1)c1ccccc1)c1ccccc1,"inconclusive: 3.55 µM [inhibitor, partial curve, poor fit]",–
O=C(Nc1ccccc1)NC1CC2CCC(C1)N2 (configuration not stated),inactive,–
COc1ccccc1N(C(=O)CNS(=O)(=O)c1ccccc1)C(C(=O)NCc1ccco1)C(C)C (configuration not stated),"inconclusive: 35.5 µM [inhibitor, single point]",–
CC1CCCN(CCCNC(=O)c2cn(C)c3ccc(S(=O)(=O)N(C)C4CCCCC4)cc3c2=O)C1 (configuration not stated),inactive,–
O=C(COc1ccc(F)cc1)NNC(=O)Cn1ccc(C(F)(F)F)n1,–,inconclusive: 0.108% [activator]
CC(NC(=O)CCC(=O)c1cccs1)c1ccccc1 (configuration not stated),"inconclusive: 11.2 µM [activator, single point]",–
Cc1ccc(CCc2nnc(SCC(=O)Nc3ccccc3Cl)n2-c2ccccc2)o1,"inconclusive: 35.5 µM [inhibitor, single point]",–
O=C(Nc1ccccn1)c1csc2c1CCCC2,"inconclusive: 5.62 µM [activator, single point]",–
Cc1cc(O)c(C2(O)C(=O)Nc3cc(Br)ccc32)cc1C (configuration not stated),"inconclusive: 1.26 µM [inhibitor, single point]",–
Oc1ccc(N=Cc2ccc(O)c(O)c2)cc1,"inconclusive: 10 µM [inhibitor, partial curve, poor fit]",–
COc1ccc(/C=C2\SC(=S)N(CC3CCCO3)C2=O)cc1 (configuration not stated),inactive,–
O=C(CSc1nc2ccc([N+](=O)[O-])cc2s1)NC1CCS(=O)(=O)C1 (configuration not stated),"inconclusive: 3.55 µM [activator, partial curve, poor fit]",–
CS(=O)(=O)Nn1cnc2ccccc2c1=O,"inconclusive: 0.447 µM [activator, partial curve, poor fit]",–
CCC(=O)Nc1cccc(NC(=S)NC(=O)c2cccc(C)c2)c1,"inconclusive: 0.708 µM [activator, full curve]",–
O=C(CSc1nnc(-c2cccc(Br)c2)o1)N1CCOCC1,"inconclusive: 1.12 µM [activator, full curve, poor fit]",–
O=C(Cn1c(-c2ccccn2)nc2ccccc21)N/N=C/c1cccnc1,"inconclusive: 0.562 µM [activator, full curve, poor fit]",–
Cn1c(=O)c2c([nH]c(=O)n2Cc2ccc(Cl)cc2Cl)n(C)c1=O,inactive,–
